{
  "source": "patent US20240269073A1",
  "about": "“CO-AMORPHOUS FORMS FOR USE IN CANCER THERAPY” (Zerion Pharma APS, priority 2021, published 2024)",
  "origin": "cited, not measured here",
  "conditions": "cited from earlier work; for Equivalent amount: equivalent glucocorticoid dose",
  "note": "At least one structure is not confirmed: it was looked up by name or label, or the drawing left a doubt.",
  "data": [
    {"smiles": "C[C@H]1C[C@@H]2[C@H]([C@@H](O)C[C@@]3(C)[C@H]2CC[C@]3(O)C(=O)CO)[C@@]2(C)C=CC(=O)C=C12", "note": "[Methylprednisolone]", "values": [
      {"measurement": "Hydrocortisone equivalent (1 mg of the glucocorticoid corresponds to the listed amount in mg of hydrocortisone)", "value": 5, "unit": "mg"},
      {"measurement": "Equivalent amount", "value": 4, "unit": "mg"}
    ]},
    {"smiles": "C[C@H]1C[C@H]2[C@@H]3CCC4=CC(=O)C=C[C@]4(C)[C@@]3(F)[C@@H](O)C[C@]2(C)[C@@]1(O)C(=O)CO", "note": "[Betamethasone]", "values": [
      {"measurement": "Hydrocortisone equivalent (1 mg of the glucocorticoid corresponds to the listed amount in mg of hydrocortisone)", "value": 26.66, "unit": "mg"},
      {"measurement": "Equivalent amount", "value": 0.75, "unit": "mg"}
    ]},
    {"smiles": "C[C@@H]1C[C@H]2[C@@H]3CCC4=CC(=O)C=C[C@]4(C)[C@@]3(F)[C@@H](O)C[C@]2(C)[C@@]1(O)C(=O)CO", "note": "[Dexamethasone]", "values": [
      {"measurement": "Hydrocortisone equivalent (1 mg of the glucocorticoid corresponds to the listed amount in mg of hydrocortisone)", "value": 26.66, "unit": "mg"},
      {"measurement": "Equivalent amount", "value": 0.75, "unit": "mg"}
    ]}
  ]
}
